Some of the results follow.

By UniProt entry, the sequences of proteins in these tests, tags left out. Where a name states a change or a piece, a line headed by the entry shows the natural chain unless it says otherwise.
UniProt Q96DX7: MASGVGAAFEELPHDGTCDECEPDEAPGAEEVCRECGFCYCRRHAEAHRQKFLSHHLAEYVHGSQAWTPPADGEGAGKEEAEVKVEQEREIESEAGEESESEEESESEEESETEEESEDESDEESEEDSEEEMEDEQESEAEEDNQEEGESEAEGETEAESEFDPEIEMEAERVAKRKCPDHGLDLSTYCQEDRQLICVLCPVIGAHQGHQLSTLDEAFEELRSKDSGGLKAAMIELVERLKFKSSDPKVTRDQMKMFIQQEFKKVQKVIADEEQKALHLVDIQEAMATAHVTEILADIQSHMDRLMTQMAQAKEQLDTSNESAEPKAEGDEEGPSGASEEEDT
UniProt Q7Z4G4: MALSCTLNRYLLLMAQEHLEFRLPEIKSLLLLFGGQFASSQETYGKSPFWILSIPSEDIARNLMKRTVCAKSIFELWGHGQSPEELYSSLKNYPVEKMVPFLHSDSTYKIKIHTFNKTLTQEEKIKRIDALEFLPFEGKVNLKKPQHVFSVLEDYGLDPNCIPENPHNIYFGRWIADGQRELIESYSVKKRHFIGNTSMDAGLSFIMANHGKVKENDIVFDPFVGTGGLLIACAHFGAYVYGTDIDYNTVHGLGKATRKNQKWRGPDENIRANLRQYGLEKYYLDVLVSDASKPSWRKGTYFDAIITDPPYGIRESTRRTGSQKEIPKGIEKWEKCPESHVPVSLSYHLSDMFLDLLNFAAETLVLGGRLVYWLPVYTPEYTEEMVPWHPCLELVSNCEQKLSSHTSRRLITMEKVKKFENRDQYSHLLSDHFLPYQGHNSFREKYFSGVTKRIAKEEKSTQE
UniProt O00635: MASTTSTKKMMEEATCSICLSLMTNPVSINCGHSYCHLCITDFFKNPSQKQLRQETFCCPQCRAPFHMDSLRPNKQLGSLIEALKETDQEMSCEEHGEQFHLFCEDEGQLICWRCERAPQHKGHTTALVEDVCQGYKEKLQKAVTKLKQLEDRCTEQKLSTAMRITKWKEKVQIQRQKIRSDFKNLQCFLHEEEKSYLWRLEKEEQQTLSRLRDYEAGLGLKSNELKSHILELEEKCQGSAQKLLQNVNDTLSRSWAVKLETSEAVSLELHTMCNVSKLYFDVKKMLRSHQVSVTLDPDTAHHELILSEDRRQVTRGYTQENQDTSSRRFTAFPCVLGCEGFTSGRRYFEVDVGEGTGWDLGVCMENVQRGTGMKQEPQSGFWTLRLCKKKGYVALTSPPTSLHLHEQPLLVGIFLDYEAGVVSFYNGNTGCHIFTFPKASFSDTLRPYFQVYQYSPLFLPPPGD
UniProt Q15631: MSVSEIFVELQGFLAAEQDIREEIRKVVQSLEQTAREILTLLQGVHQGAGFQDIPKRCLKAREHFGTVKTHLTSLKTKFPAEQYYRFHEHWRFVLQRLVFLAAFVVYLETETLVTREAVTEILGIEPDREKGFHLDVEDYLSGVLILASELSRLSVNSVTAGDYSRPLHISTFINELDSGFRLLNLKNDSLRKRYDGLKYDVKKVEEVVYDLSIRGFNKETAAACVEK
UniProt P30536, whole entry, looked up: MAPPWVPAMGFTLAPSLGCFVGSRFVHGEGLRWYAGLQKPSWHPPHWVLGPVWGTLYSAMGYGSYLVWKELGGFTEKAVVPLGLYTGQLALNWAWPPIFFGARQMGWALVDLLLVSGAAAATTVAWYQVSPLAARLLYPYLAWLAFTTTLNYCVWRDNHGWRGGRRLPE
UniProt Q15714: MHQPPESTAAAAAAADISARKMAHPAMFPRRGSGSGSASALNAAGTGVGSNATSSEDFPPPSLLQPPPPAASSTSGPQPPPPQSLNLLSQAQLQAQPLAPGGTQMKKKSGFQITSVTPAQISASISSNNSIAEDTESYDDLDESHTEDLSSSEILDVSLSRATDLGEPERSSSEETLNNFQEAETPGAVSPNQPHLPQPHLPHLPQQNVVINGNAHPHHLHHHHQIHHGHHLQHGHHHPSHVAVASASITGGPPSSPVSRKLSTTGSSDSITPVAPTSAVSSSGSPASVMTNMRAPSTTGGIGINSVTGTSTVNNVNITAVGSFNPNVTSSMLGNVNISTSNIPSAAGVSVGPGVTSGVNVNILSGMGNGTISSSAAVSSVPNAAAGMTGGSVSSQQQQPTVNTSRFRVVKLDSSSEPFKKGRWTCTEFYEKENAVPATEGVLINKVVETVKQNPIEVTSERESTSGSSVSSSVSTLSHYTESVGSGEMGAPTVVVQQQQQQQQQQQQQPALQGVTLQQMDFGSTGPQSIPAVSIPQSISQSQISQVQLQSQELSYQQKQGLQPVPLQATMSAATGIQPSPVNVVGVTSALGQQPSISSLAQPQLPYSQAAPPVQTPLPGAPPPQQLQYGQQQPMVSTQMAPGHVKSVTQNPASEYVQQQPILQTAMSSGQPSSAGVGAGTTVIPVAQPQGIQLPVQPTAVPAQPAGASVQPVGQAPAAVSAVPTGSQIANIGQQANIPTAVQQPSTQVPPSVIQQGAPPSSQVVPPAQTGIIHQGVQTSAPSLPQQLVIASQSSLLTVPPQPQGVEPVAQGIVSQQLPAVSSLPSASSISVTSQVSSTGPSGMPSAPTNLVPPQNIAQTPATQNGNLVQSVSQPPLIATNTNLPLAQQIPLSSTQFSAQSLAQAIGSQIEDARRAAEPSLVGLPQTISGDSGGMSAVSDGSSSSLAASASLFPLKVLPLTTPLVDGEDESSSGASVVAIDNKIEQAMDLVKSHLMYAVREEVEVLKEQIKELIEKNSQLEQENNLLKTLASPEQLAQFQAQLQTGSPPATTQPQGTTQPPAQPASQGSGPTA
UniProt Q9C037: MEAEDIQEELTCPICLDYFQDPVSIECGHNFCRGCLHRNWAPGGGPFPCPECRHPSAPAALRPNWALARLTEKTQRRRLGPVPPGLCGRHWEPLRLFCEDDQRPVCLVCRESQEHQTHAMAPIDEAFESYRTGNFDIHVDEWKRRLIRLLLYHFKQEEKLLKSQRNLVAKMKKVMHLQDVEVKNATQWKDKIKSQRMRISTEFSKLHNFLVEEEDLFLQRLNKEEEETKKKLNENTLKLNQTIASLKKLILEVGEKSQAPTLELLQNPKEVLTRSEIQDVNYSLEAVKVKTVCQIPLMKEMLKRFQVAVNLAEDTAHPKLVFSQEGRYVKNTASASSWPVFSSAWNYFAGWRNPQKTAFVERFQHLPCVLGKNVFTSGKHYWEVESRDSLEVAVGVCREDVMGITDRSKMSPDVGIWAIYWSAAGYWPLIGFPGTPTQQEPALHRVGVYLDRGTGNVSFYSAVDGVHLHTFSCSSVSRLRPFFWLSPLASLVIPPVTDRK
UniProt Q7Z2T5: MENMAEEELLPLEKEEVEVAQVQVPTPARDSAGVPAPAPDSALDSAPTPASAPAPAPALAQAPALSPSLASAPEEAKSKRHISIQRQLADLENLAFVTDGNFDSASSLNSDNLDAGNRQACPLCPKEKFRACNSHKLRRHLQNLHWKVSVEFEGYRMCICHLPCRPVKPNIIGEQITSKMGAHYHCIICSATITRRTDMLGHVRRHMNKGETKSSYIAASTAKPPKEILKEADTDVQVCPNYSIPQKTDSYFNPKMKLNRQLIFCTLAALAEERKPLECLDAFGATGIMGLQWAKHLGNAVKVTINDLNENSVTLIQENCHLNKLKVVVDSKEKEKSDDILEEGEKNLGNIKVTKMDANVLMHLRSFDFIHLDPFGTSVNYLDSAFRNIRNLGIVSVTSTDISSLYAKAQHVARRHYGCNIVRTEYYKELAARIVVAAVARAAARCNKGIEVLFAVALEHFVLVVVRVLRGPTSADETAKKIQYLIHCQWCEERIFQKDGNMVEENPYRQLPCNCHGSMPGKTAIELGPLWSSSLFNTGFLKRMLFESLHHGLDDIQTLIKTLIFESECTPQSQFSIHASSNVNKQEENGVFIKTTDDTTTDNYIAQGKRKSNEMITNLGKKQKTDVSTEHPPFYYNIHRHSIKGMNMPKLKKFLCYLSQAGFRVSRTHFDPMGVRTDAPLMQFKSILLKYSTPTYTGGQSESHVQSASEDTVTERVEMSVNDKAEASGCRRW
UniProt Q8WVT3: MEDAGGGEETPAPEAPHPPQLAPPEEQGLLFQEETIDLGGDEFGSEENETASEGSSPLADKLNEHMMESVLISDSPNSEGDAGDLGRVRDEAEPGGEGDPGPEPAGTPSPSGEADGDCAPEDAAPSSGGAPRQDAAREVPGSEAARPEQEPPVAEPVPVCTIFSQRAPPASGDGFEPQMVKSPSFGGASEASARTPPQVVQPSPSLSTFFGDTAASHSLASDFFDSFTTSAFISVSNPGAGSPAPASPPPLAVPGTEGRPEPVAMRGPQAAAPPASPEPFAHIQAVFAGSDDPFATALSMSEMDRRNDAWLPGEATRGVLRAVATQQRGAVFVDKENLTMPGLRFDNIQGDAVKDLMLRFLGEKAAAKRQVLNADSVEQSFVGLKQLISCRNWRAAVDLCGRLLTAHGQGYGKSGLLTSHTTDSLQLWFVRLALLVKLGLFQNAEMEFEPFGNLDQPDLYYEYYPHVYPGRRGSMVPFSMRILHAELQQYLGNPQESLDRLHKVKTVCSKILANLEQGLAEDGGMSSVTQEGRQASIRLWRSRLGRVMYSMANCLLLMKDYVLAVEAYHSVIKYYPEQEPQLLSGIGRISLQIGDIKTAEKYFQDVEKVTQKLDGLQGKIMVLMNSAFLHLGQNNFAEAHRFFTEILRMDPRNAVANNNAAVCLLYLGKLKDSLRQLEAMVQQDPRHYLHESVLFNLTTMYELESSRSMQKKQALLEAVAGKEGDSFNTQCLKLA
UniProt Q5BVD1: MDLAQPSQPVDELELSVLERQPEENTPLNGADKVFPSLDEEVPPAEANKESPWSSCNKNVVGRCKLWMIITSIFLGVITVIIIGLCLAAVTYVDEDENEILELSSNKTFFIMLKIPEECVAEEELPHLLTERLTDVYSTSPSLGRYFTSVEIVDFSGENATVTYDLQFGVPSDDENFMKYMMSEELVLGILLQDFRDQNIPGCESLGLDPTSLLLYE
UniProt Q6NXR4: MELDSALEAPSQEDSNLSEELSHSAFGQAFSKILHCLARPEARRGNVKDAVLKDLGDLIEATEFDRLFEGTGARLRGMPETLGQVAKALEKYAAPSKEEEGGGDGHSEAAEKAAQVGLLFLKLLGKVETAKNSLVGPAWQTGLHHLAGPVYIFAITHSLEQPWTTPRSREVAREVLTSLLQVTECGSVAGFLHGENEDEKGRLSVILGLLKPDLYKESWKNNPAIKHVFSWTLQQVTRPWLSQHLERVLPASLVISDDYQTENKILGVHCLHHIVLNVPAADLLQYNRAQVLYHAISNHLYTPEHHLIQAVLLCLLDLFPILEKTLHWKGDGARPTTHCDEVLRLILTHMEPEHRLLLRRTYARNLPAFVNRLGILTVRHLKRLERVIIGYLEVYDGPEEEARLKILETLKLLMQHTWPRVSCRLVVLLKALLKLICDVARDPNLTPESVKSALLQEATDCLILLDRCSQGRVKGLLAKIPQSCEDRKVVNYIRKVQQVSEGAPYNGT
UniProt Q8WWH5: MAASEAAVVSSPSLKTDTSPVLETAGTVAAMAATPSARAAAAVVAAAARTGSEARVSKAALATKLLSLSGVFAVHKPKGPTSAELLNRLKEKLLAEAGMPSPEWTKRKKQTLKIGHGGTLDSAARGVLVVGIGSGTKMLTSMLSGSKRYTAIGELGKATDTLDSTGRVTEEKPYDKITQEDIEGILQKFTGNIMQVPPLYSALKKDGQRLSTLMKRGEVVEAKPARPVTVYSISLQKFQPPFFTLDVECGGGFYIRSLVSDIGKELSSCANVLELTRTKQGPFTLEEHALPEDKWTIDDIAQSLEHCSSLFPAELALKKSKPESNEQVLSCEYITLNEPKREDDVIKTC
UniProt Q8WW01: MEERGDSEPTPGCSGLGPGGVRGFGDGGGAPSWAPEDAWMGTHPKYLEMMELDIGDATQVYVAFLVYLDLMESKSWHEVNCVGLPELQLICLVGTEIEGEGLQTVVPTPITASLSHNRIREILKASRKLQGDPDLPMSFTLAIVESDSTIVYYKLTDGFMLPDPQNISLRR
UniProt A5PLN9: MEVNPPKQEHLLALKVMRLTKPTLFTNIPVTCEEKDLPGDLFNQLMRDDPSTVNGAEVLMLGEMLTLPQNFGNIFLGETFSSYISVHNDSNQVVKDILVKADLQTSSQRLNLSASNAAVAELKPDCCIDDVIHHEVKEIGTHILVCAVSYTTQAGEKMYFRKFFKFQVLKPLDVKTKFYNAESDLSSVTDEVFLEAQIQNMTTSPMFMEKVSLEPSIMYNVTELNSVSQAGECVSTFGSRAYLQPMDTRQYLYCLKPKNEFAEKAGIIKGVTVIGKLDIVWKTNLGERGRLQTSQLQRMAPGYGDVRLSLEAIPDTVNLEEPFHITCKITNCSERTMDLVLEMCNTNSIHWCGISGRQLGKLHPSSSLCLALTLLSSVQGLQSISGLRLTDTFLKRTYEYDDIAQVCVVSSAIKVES
UniProt Q9Y296, whole entry, looked up: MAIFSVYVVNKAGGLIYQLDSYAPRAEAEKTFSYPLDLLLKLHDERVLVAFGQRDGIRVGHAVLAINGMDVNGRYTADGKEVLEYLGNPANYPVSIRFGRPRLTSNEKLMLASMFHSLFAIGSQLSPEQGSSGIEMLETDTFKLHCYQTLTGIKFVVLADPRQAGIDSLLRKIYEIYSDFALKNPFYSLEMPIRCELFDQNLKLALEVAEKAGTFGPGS

The values that follow come from the supplement of paper PMC10849652.

Compound in the first experiment: C1=CC2=C(C=CC(=C2)/C=C\3/C(=O)NC(=NCC4=CC=CS4)S3)N=C1
Put plainly: log2 fold change, soluble protein after heating vs DMSO (PISA); higher = thermal stabilisation; K562 lysate, 10 uM; active = over 0.2 and 3.5 SD of the protein, either way, in both replicates (recomputed). The procedure, abridged:
(§1)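 Following dounce homogenisation of K562 pellets in PBS pH 7.4 with 1 mM MgCl2, crude extract at 1 mg/mL protein was incubated for 30 min with 10 μM compound. Aliquots were then heated for 3 min over 48°C-58°C and pooled, NP-40 was added to 0.5% at 4°C, and soluble protein was recovered as the supernatant at 21,000xg for 90 min. Channel-sum-equalised TMTpro 16plex LC-MS/MS quantified this protein. Each value, from duplicates, is a log-two fold change in thermal stability relative to solvent controls.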
Consider TSSC4 (UniProt Q9Y5U2), for which the log2 fold change is inactive: 0.097.

In the case of TRIM44 (UniProt Q96DX7), the log2 fold change is inactive: -0.037.

For TRMT12 (UniProt Q53H54), the log2 fold change was inactive: 0.058.

As to TTC9C (UniProt Q8N5M4), the log2 fold change is inactive: 0.028.

With TRMT11 (UniProt Q7Z4G4), the log2 fold change is inactive: 0.045.

Consider TRAPPC6B (UniProt Q86SZ2), for which the log2 fold change is inactive: -0.02.

With TRIM38 (UniProt O00635), the log2 fold change is inactive: 0.004.

Regarding TRMT10A (UniProt Q8TBZ6), the log2 fold change was inactive: -0.018.

With TSN (UniProt Q15631), the log2 fold change is inactive: -0.007.

TRAPPC9 isoform 2 (UniProt Q96Q05): the log2 fold change is inactive: 0.006.

Turning to TTLL12 (UniProt V9GY16), the log2 fold change is inactive: -0.05.

As for TTC7B isoform 2 (UniProt Q86TV6), the log2 fold change was inactive: 0.055.

Take TSPO (UniProt P30536): the log2 fold change is inactive: -0.071.

TRAPPC6A isoform 2 (UniProt O75865): the log2 fold change is inactive: 0.049.

On to TTC27 (UniProt Q6P3X3), for which the log2 fold change is inactive: 0.004.

As for TSC22D1 (UniProt Q15714), the log2 fold change was inactive: -0.014.

Turning to TSFM (UniProt P43897), the log2 fold change is inactive: -0.003.

For TRNAU1AP (UniProt Q9NX07), the log2 fold change was inactive: 0.114.

With TRIM4 (UniProt Q9C037), the log2 fold change is inactive: 0.026.

With TRMT6 (UniProt Q9UJA5), the log2 fold change was inactive: -0.008.

As to TRMT1L (UniProt Q7Z2T5), the log2 fold change was inactive: 0.016.

On to TRIM11 (UniProt Q96F44), for which the log2 fold change is inactive: -0.002.

Take TRPC4AP (UniProt Q8TEL6): the log2 fold change is inactive: -0.036.

Turning to TRAPPC12 (UniProt Q8WVT3), the log2 fold change is inactive: -0.047.

For the target TSC1 (UniProt Q92574), the log2 fold change is inactive: -0.189.

With TTMP isoform 3 (UniProt Q5BVD1), the log2 fold change was inactive: -0.106.

In the case of TTI2 (UniProt Q6NXR4), the log2 fold change is inactive: 0.047.

As for TRRAP (UniProt Q9Y4A5), the log2 fold change is inactive: 0.022.

For TRIP10 isoform 2 (UniProt Q15642), the log2 fold change was inactive: 0.036.

For the target TRIR (UniProt Q9BQ61), the log2 fold change was inactive: 0.014.

As for TRUB1 (UniProt Q8WWH5), the log2 fold change was inactive: 0.034.

For the target TRMT61A (UniProt Q96FX7), the log2 fold change is inactive: 0.002.

For TRAF3 (UniProt Q13114), the log2 fold change was inactive: 0.056.

On to TSEN15 (UniProt Q8WW01), for which the log2 fold change is inactive: 0.038.

For the target TRMT112 (UniProt Q9UI30), the log2 fold change is inactive: -0.002.

As to TRMU (UniProt O75648), the log2 fold change was inactive: 0.067.

With TSPAN13 (UniProt O95857), the log2 fold change was inactive: 0.003.

Turning to TRAPPC13 isoform 4 (UniProt A5PLN9), the log2 fold change was inactive: 0.005.

In the case of TRAPPC4 (UniProt Q9Y296), the log2 fold change was inactive: 0.026.

In the case of TTC12 isoform 2 (UniProt Q9H892), the log2 fold change was inactive: 0.007.

Compound in the next experiment: C1=CC2=NC=CN=C2C=C1/C=C/3\C(=O)NC(=O)S3
The description is as above. In outline: as §1
With TSSC4 (UniProt Q9Y5U2), the log2 fold change is inactive: 0.036.

Take TRIM44 (UniProt Q96DX7): the log2 fold change was inactive: 0.057.

Turning to TRMT12 (UniProt Q53H54), the log2 fold change was inactive: -0.044.

With TTC9C (UniProt Q8N5M4), the log2 fold change is inactive: 0.01.

In the case of TRMT11 (UniProt Q7Z4G4), the log2 fold change is inactive: 0.02.

As to TRAPPC6B (UniProt Q86SZ2), the log2 fold change is inactive: -0.004.

Regarding TRIM38 (UniProt O00635), the log2 fold change was inactive: -0.015.

With TRMT10A (UniProt Q8TBZ6), the log2 fold change was inactive: -0.024.

TSN (UniProt Q15631): the log2 fold change was inactive: -0.005.

As for TRAPPC9 isoform 2 (UniProt Q96Q05), the log2 fold change was inactive: -0.04.

As for TTLL12 (UniProt V9GY16), the log2 fold change is inactive: 0.074.

On to TTC7B isoform 2 (UniProt Q86TV6), for which the log2 fold change was inactive: -0.022.

Consider TSPO (UniProt P30536), for which the log2 fold change is inactive: -0.024.

Turning to TRAPPC6A isoform 2 (UniProt O75865), the log2 fold change is inactive: -0.055.

As to TTC27 (UniProt Q6P3X3), the log2 fold change is inactive: 0.007.

Take TSC22D1 (UniProt Q15714): the log2 fold change was inactive: -0.048.

For the target TSFM (UniProt P43897), the log2 fold change was inactive: -0.002.

On to TRNAU1AP (UniProt Q9NX07), for which the log2 fold change is inactive: 0.038.

Take TRIM4 (UniProt Q9C037): the log2 fold change is inactive: -0.011.

As to TRMT6 (UniProt Q9UJA5), the log2 fold change was inactive: 0.

With TRMT1L (UniProt Q7Z2T5), the log2 fold change is inactive: -0.031.

TRIM11 (UniProt Q96F44): the log2 fold change was inactive: 0.012.

Turning to TRPC4AP (UniProt Q8TEL6), the log2 fold change was inactive: -0.006.

As for TRAPPC12 (UniProt Q8WVT3), the log2 fold change is inactive: -0.018.

Consider TSC1 (UniProt Q92574), for which the log2 fold change is inactive: 0.062.

Regarding TTMP isoform 3 (UniProt Q5BVD1), the log2 fold change is inactive: -0.026.

With TTI2 (UniProt Q6NXR4), the log2 fold change was inactive: 0.013.

Consider TRRAP (UniProt Q9Y4A5), for which the log2 fold change was inactive: -0.012.

Consider TRIP10 isoform 2 (UniProt Q15642), for which the log2 fold change was inactive: -0.048.

For TRIR (UniProt Q9BQ61), the log2 fold change was inactive: -0.087.

As for TRUB1 (UniProt Q8WWH5), the log2 fold change is inactive: -0.031.

As for TRMT61A (UniProt Q96FX7), the log2 fold change is inactive: -0.005.

TRAF3 (UniProt Q13114): the log2 fold change was inactive: -0.1.

As for TSEN15 (UniProt Q8WW01), the log2 fold change is inactive: 0.061.

Take TRMT112 (UniProt Q9UI30): the log2 fold change was inactive: 0.019.

As for TRMU (UniProt O75648), the log2 fold change is inactive: -0.112.

Regarding TSPAN13 (UniProt O95857), the log2 fold change is inactive: -0.002.

Turning to TRAPPC13 isoform 4 (UniProt A5PLN9), the log2 fold change is inactive: -0.017.

As to TRAPPC4 (UniProt Q9Y296), the log2 fold change was inactive: -0.026.

Take TTC12 isoform 2 (UniProt Q9H892): the log2 fold change is inactive: -0.081.
